PubChem BioAssay AID504764, Drosophila RNAi Screening Center | 2011
Test: 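Knock-downs that raise or lower a Notch target reporter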 (primary screen). Cell system: Drosophila Kc167 cells. Reagents: long dsRNA against Drosophila genes. Duration: about 5 days (4 days dsRNA, then 24 h after transfection). Treatment: transfection of constitutively active membrane-tethered Notch lacking the extracellular domain, read 24 h later. Measured: 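Firefly luciferase from an E(spl)m3 reporter with active Notch, plus control-promoter and uninduced reporter wells for normalisation; unnormalised counts, duplicate wells a and b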. Scale: induced reporter light, run 1, well a and induced reporter light, run 1, well b: higher = more light from the Notch target reporter with active Notch; control promoter light, run 1, well a and control promoter light, run 1, well b: higher = more light from the viral control promoter (cell number, transfection, viability); uninduced reporter light, run 1, well a: higher = more light from the Notch target reporter without active Notch. Hit rule: 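Hit if the duplicate-averaged log2 ratio of induced to control-promoter light gives a plate-wise z beyond ±2, or induced to uninduced beyond ±1.8; weak-control or discordant-duplicate wells dropped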. Meaning of the calls: active = modifier hit (raised or lowered Notch signal); inactive = not a hit.
The screen tested about 22,000 reagents; shown is a random part of those with a known target gene and a result. Of all reagents, 403 (1.9%) are marked active. 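Unnormalised raw counts per well; ratio z-scores behind the hit calls and whether each hit raises or lowers signal are not deposited.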 A plus sign joins genes that one reagent is predicted to hit. Not given: the amount of reagent.

The opening 2 entries, ahead of the listing:
Gene,DRSC id,"induced reporter light, run 1, well a","induced reporter light, run 1, well b","control promoter light, run 1, well a","control promoter light, run 1, well b","uninduced reporter light, run 1, well a",activity call
Sps2,DRSC03441,1.22e5,1.58e5,63125,84650,17660,inactive
CR33317,DRSC02653,37900,25000,29810,26650,2000,inactive

Main list, from the first entry:
Gene,DRSC id,"induced reporter light, run 1, well a","induced reporter light, run 1, well b","control promoter light, run 1, well a","control promoter light, run 1, well b","uninduced reporter light, run 1, well a",activity call
Sps2,DRSC03441,1.22e5,1.58e5,63125,84650,17660,inactive
CR33317,DRSC02653,37900,25000,29810,26650,2000,inactive
Muc18B,DRSC20064,72035,80995,91100,1.20e5,10335,inactive
Muc18B,DRSC21644,,,,,,inactive
CG14262,DRSC14757,1.40e5,1.37e5,2.03e5,1.71e5,10180,inactive
CG4053,DRSC15538,2.41e5,2.67e5,2.00e5,2.10e5,18960,inactive
CG2076,DRSC19832,96175,97445,1.19e5,1.26e5,7060,inactive
CG31249,DRSC16248,2.08e5,1.87e5,2.19e5,2.26e5,12640,inactive
CG30259,DRSC04164,1.60e5,1.61e5,1.53e5,1.14e5,10550,inactive
CG30259,DRSC04165,1.93e5,1.88e5,2.15e5,1.74e5,12830,inactive
CG31097,DRSC14666,1.20e5,1.55e5,1.67e5,1.63e5,12630,inactive
CG15822,DRSC08482,1.18e5,1.25e5,2.06e5,1.59e5,8495,inactive
CG15822,DRSC08483,1.20e5,1.32e5,1.76e5,2.09e5,4932,inactive
ave,DRSC05502,2.54e5,1.99e5,2.04e5,2.24e5,15310,inactive
l(2)34Fd,DRSC01911,2.84e5,2.46e5,2.03e5,2.18e5,16665,inactive
CG40198,DRSC21068,62585,71920,83435,95825,6110,inactive
CG4594,DRSC02762,2.47e5,2.42e5,2.17e5,2.27e5,16180,inactive
Vps25,DRSC06486,1.69e5,1.66e5,2.03e5,2.19e5,14690,inactive
TrpA1,DRSC10544,1.61e5,1.45e5,1.68e5,2.05e5,13880,inactive
Camta,DRSC06440,89560,78590,58735,44820,8940,inactive
Camta,DRSC06441,1.55e5,1.21e5,1.93e5,1.80e5,13120,inactive
Camta,DRSC07272,2.24e5,1.47e5,1.37e5,1.59e5,15840,inactive
Ank2,DRSC08894,1.36e5,1.36e5,1.76e5,1.73e5,11005,inactive
Ank2,DRSC09666,2.30e5,2.10e5,1.93e5,1.90e5,10480,inactive
Ank2,DRSC10338,2.23e5,2.33e5,3.63e5,2.32e5,10120,inactive
Ank2,DRSC11278,2.85e5,2.31e5,2.28e5,2.38e5,9950,inactive
CR13656,DRSC13705,1.97e5,1.71e5,1.76e5,1.89e5,15020,inactive
CR13656,DRSC14656,1.67e5,1.84e5,2.04e5,2.48e5,14625,inactive
CG42331,DRSC14633,1.69e5,1.55e5,1.82e5,1.64e5,14428,inactive
CG42331,DRSC16126,1.55e5,1.48e5,1.25e5,1.65e5,9915,inactive
vilya,DRSC18588,1.15e5,1.34e5,2.28e5,1.54e5,7092,inactive
NO66,DRSC18252,1.58e5,1.84e5,2.09e5,2.33e5,11260,inactive
Psf1,DRSC08638,1.02e5,1.11e5,2.19e5,2.37e5,10225,inactive
E(spl)mbeta-HLH,DRSC16697,2.21e5,2.10e5,2.36e5,2.20e5,11780,inactive
CG14100,DRSC10101,1.34e5,1.16e5,1.08e5,1.09e5,8200,inactive
t-Grip91,DRSC01506,97165,79285,79740,70130,7595,inactive
Su(var)3-9,DRSC14484,92510,76825,89340,61805,4565,inactive
CG4281,DRSC18521,1.66e5,1.62e5,2.34e5,2.47e5,13165,inactive
CG17636,DRSC20648,91630,81970,96150,1.04e5,7870,inactive
CG32069 + Blos2,DRSC10621,10915,12255,10505,3070,700,inactive
CG1572,DRSC19686,1.61e5,1.56e5,2.21e5,2.24e5,11025,inactive
CG17349,DRSC02610,43070,36380,42710,45795,3090,inactive
CG11417,DRSC18581,1.58e5,1.55e5,2.02e5,2.25e5,7910,inactive
CG13085,DRSC02189,82415,55215,61590,65460,2515,inactive
ND-24L,DRSC10650,1.86e5,1.54e5,2.53e5,2.50e5,12020,inactive
T3dh + pgc,DRSC04659,1.69e5,1.65e5,1.11e5,1.40e5,12320,inactive
CG10116,DRSC09700,1.65e5,1.55e5,1.21e5,1.53e5,13435,inactive
CG3604,DRSC00618,1.81e5,1.50e5,2.18e5,2.09e5,12660,inactive
CG31954,DRSC00580,2.37e5,2.07e5,2.40e5,2.61e5,22060,inactive
CG15905,DRSC06591,1.11e5,86670,1.44e5,1.53e5,9040,inactive
